No constants are given. Whether binding was seen depends on the method and setting. Binding seen in cells or lysates may run through a third protein. Here binding means that the protein was enriched with, or labelled near, the bait; the list need not be complete.

Amino acid sequences for entries named in this document (tags omitted). A change or cut given only in a name is not applied to a line headed by its entry.
UniProt P00441: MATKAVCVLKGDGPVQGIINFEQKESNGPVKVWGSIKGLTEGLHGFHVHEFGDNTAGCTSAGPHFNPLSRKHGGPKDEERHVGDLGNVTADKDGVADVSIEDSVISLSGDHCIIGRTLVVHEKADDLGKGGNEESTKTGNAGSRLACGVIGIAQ

This test concerns the target human mtSOD1-L126delTT with a FLAG sequence at the C terminus (human) (UniProt P00441). Description: affinity purification with mass spectrometry; anti-FLAG M2 IP (5 ug antibody, protein A/G magnetic beads) from the nuclear fraction of DF7 cells (500 ug total protein); control IP with monoclonal mouse IgG (MOPC 21); DIA proteomics; hits: log2 FC >= 2 over control or missing in the control IP.

B1: Nono (protein, UniProt Q99K48 1-473)
chain: MQSNKAFNLEKQNHTPRKHHQHHHQQHHQQQQQQQQQQPPPPIPANGQQASSQNEGLTIDLKNFRKPGEKTFTQRSRLFVGNLPPDITEEEMRKLFEKYGKAGEVFIHKDKGFGFIRLETRTLAEIAKVELDNMPLRGKQLRVRFACHSASLTVRNLPQYVSNELLEEAFSVFGQVERAVVIVDDRGRPSGKGIVEFSGKPAARKALDRCSEGSFLLTTFPRPVTVEPMDQLDDEEGLPEKLVIKNQQFHKEREQPPRFAQPGSFEYEYAMRWKALIEMEKQQQDQVDRNIKEAREKLEMEMEAARHEHQVMLMRQDLMRRQEELRRMEELHNQEVQKRKQLELRQEEERRRREEEMRRQQEEMMRRQQEGFKGTFPDAREQEIRMGQMAMGGAMGINNRGAMPPAPVPPGTPAPPGPATMMPDGTLGLTPPTTERFGQAATMEGIGAIGGTPPAFNRPAPGAEFAPNKRRRY
For B1, the binding result is recorded as “binds”.

B2: Mtdh (protein, UniProt Q80WJ7 1-579)
chain: MAARSWQDELAQQAEEGSARLRELLSVGLGFLRTELGLDLGLEPKRYPGWVILVGTGALGLLLLFLLGYGWAAACAGARKKRRSPPRKREEAAPPTPAPDDLAQLKNLRSEEQKKKNRKKLPEKPKPNGRTVEVPEDEVVRNPRSITAKQAPETDKKNEKSKKNKKKSKSDAKAVQNSSRHDGKEVDEGAWETKISHREKRQQRKRDKVLTDSGSLDSTIPGIENIITVTTEQLTTASFPVGSKKNKGDSHLNVQVSNFKSGKGDSTLQVSSRLNENLTVNGGGWSEKSVKLSSQLSEEKWNSVPPASAGKRKTEPSAWTQDTGDTNANGKDWGRNWSDRSIFSGIGSTAEPVSQSTTSDYQWDVSRNQPYIDDEWSGLNGLSSADPSSDWNAPAEEWGNWVDEDRASLLKSQEPISNDQKVSDDDKEKGEGALPTGKSKKKKKKKKKQGEDNSHTQDTEDLEKDTREELPVNTSKARPKQEKACSLKTMSTSDPAEVLIKNSQPVKTLPPAISAEPSITLSKGDSDNSSSQVPPMLQDTDKPKSNAKQNSVPPSQTKSETNWESPKQIKKKKKARRET
In the case of B2, the binding entry is reported as “binds”.

B3: SCY1-like protein 2 (protein, UniProt Q8CFE4 1-930)
chain: MESMLNKLKSTVTKVTADVTSAVMGNPVTREFDVGRHIASGGNGLAWKIFNGTKKSTKQEVAVFVFDKKLIDKYQKFEKDQIIDSLKRGVQQLTRLRHPRLLTVQHPLEESRDCLAFCTEPVFASLANVLGNWENLPSSISPDIKDYKLYDVETKYGLLQVSEGLSFLHSSVKMVHGNVTPENVILNKSGAWKIMGFDFCVSSSNPSEQEPKFPCKEWDPNLPSLCLPNPEYLAPEYILSVSCETASDMYSLGAVMYAVFNQGRPIFEVNKQDIYKSFSRQLDQLSRLGSSSLTSIPEEVREHVKLLLNVTPTVRPDADQMTKIPFFDDVGAVTLQYFDTLFQRDNLQKSQFFKGLPKVLPKLPKRVIVQRILPCLTSEFVNPDMVPFVLPNVLLIAEECTKEEYIKLILPELGPVFKQQEPIQILLIFLQKMDLLLTKTPPDEIKNSVLPMVYRALEAPSIQIQELCLNIIPTFANLIDYPSMKNALIPRIKNACLQTSSLAVRVNSLVCLGKILEYLDKWFVLDDILPFLQQIPSKEPAVLMGILGIYKCTFTHKKLGITKEQLAGKVLPHLIPLSIENNLNLNQFSSFIAVIKEMLSRLESEHRTKLEQLHVMQEQQRSLDIGNQMSTSEETKVAHSGSQQIDKVFNNIGADLLSGSESENREDGMQGKQKRGSLTLEEKQKLAKEQEQAQKLKSQQPLKPQVHTPIAPIKQTKDLTDTLMENMSSLTSLSVSTPKISASSTFTPVPSTGLGMMFSTPIDNTKRNLTNGLNANMGFQTSGFSMPVNPNQNFFSGTGTAGVTTMSLGAPPTMSNFSPLTIPPASVKQPQQRPTDMSALNNLFGPQKPKVSMNQLSQQKPNQWLNQFAPPQGSPVMGSAAMGTQGNVMGQAAFGMQGNPFFNPQNFAQPPPTTMTSSSSASNDLKDLFG
As for B3, the binding entry is reported as “binds”.

B4: Nufip2 (protein, UniProt Q5F2E7 1-692)
chain: MEEKPGQPQPQHHHSHHHPHHHPQQQQQQQSHHHHHYYFYNHSHNHHHHHHHQQPHQYLQHGAEGSPKAQPKPLKHEQKHTLQQHQETPKKKTGYGEINGNAGEREISLKSLSSDEATNPISRVLNGNQQVVETSLKQTVKTSTFGKAGIKTKNFIQKNSMDKKNGKSYENKSGETQAVDKTDTIAIPNGVITSSSGYITNGYMSKGADNDGSGSESGYTTPKKRKARRNSAKGCENLNLVQDKIMQETSVPALKQGLETLKPDYSEQKGMRVDGSKPIWKYETGPGGTSRGKPAMGDVLRKSSDIKPGLSSKKFDDRPKGKHASAAASKEDSWTLFKPPPVFPVDNSSAKIVPKISYASKVKENLNKTVQNSSVSPSSSSSSSSTGETQTQSSSRLSQVPMSALKSVTSASFSNGPVLAGTDGSVYPSGGQPLLTTAANTLTPISTGTDSVLQDMSLASAAVEQIKSSLFIYPSNMQTVLLSAQVDLPSQTDQQNLGDIFQNQWGLSFINEPSAGPETVIGKSSDHKVMEVTFQGEYPATLVSQGAEIIPSGTEHPVFPKAYELEKRTSPQVLGHILKPGTTESGALSLDPSHIGDLQKADTSSQGALVFLSKDYEIENQNPLASPTNTLLGSAKEQRYQRGLERNDSWGSFDLRAAIVYHTKEMESIWNLQKQDPKRIITYNEAMDSPDQ
As for B4, the binding result was “binds”.

B5: Nop2 (protein, UniProt Q922K7 1-793)
chain: MGRKLDPTKKEKRGPGRKARKQKGAETELVRFLPAAGDENSKRLSSRARKRAAKRRAGSVDVPKPNKSPGIKTLPGELSKGAVQARGKKRPAPIQNSDGDEEEDSGEDDVVTQGDLWGSEDSDEDMVDDYGAASNSEDEEEKLLPIERAALKQKAQDATAGVLWNEEDTDEDEDDDGVSPESHPRKDDKAEGDLQINVEDEEAFVLPPAGETDQDGQAPDLQRVHKRIQDIVGVLRDFGAQREEGRSRAEYLSRLQKDLATYYSYGDFLLSKLMELFPLSELIEFLEANEVPRPITLRTNTLKTRRRDLAQLLINRGVNLDPLGKWSKSGLVVYDSSVPIGATPEYLAGHYMLQGASSMLPVMALAPQEHERILDMCCAPGGKTSYIAQLMKNTGVILANDANADRLKSVVGNLHRLGVTNTIISHYDGRQFPKVVGGFDRVLLDAPCSGTGVISKDPAVKTNKDEKDIQRCAHLQKELLLSAIDSVNAASKTGGYLVYCTCSITVEENEWVVDYALKKRNVRLVPTGLDFGQEGFTRFQARRFHPTLRSTRRFYPHTHNMDGFFIAKFKKFSNSIPQPHAGNSAAATPTEPDLKDQVTPKSENGSQPTKKARGAVKAKQQLLRQPHSKKPFQKLNGIAKGPGLSTEPSVPDAQVSTRPSQSAGNADVNSKRKRSEKLKQRGPKWKPSKEAAVPKPSAPSRVEDSGTPVPTPSEIRAAPRPKDCAPSLGKAKKKQKGKQQLAQQPANGAAPLKEDAVSKGPSAPFVSPHSSTRPPPAKRRKSMTKGNSQPLLS
For the molecule B5, the binding entry is given as “binds”.

B6: Prpf3 (protein, UniProt Q922U1 1-683)
chain: MALSKRELDELKPWIEKTVKRVLGFSEPTVVTAALNCVGKGMDKKKAADHLKPFLDDSTLRFVDKLFEAVEEGRSSRHSKSSSDRSRKRELKEVFGDDSEISKESSGVKKRRIPRFEEVEEEPEVIPGPPSESPGMLTKLQIKQMMEAATRQIEERKKQLSFISPPAPQPKTPSSSQPERLPIGNTIQPSQAATFMNDAIEKARKAAELQARIQAQLALKPGLIGNANMVGLANLHAMGIAPPKVELKDQTKPTPLILDEQGRTVDATGKEVELTHRMPTLKANIRAVKREQFKQQLKEKPSEDMESNTFFDPRVSIAPSQRQRRTFKFHDKGKFEKIAQRLRTKAQLEKLQAEISQAARKTGIHTSTRLALIAPKKELKEGDIPEIEWWDSYIIPNGFDLTEENPKREDYFGITNLVEHPAQLNPPVDNDTPVTLGVYLTKKEQKKLRRQTRREAQKELQEKVRLGLTPPPEPKVRISNLMRVLGTEAVQDPTKVEAHVRAQMAKRQKAHEEANAARKLTAEQRKVKKIKKLKEDISQGVHISVYRVRNLSNPAKKFKIEANAGQLYLTGVVVLHKDVNVVVVEGGPKAQKKFKRLMLHRIKWDEQTSNTKGDDDEESDEEAVKKTNKCVLVWEGTAKDRSFGEMKFKQCPTENMAREHFKKHGAEHYWDLALSESVLESTD
Turning to B6, the binding result was “binds”.

B7: Serine palmitoyltransferase 1 (protein, UniProt O35704 1-473)
chain: MATVAEQWVLVEMVQALYEAPAYHLILEGILILWIIRLVFSKTYKLQERSDLTAKEKEELIEEWQPEPLVPPVSKNHPALNYNIVSGPPTHNIVVNGKECVNFASFNFLGLLANPRVKATAFSSLKKYGVGTCGPRGFYGTFDVHLDLEERLAKFMKTEEAIIYSYGFSTIASAIPAYSKRGDIIFVDSAACFAIQKGLQASRSDIKLFKHNDVADLERLLKEQEIEDQKNPRKARVTRRFIVVEGLYMNTGTICPLPELVKLKYKYKARIFLEESLSFGVLGEHGRGVTEHYGISIDDIDLISANMENALASVGGFCCGRSFVVDHQRLSGQGYCFSASLPPLLAAAAIEALNIMEENPDIFAVLKKKCQNIHKSLQGVSGLKVVGESLSPALHLQLEESTGSREKDVKLLQAIVDQCMDKGIALTQARYLDKEEKCLPPPSIRVVVTVEQTEEELQRAASTIREAAQAVLL
With B7, the binding result is “binds”.

B8: Pgam5 (protein, UniProt Q8BX10 1-288)
chain: MAFRQALQLAACGLAGGSAAVLFSAVAVGKPRGGGDADTRATEPPAWTGARAGRGVWDTNWDRREPLSLINLKKRNVESGEDELTSRLDHYKAKATRHIFLIRHSQYHVDGSLEKDRTLTPLGREQAELTGLRLASLGLKFNKIVHSSMTRAVETTDIISKHLPGVSRVSTDLLREGAPIEPDPPVSHWKPEAVQYYEDGARIEAAFRNYIHRADARQEEDSYEIFICHANVIRYIVCRALQFPPEGWLRLSLNNGSITHLVIRPNGRVALRTLGDTGFMPPDKITRS
As for B8, the binding entry is on record as “binds”.

B9: nuclear RNA export factor 1 (protein, UniProt Q99JX7 1-618)
chain: MADEGKSYNEHDDRVSFPQRRKKGRGPFRWKCGEGNRRSGRGGSGVQSSRFEEDDGDVAMNDPQDGPRVRYNPYTNRPNRRGDGWHDRDRIHITVRRDRAPAERGGAGTSQDGTTKNWFKITIPYGRKYDKTWLLSMIQSKCSVPFNPIEFHYENTRAHFFVEDATTASALKGVNHKIQDRENRRISIIINASAPPYTVQNELKPEQIEQLKLIMSKRYDGNQQALDLKGLRSDPDLVAQNIDVVLNRRSCMAATLRIIEENIPELLSLNLSSNRLYKLDDMSSIVQKAPNLKTLNLSGNELKTERELDKIKGLKLEELWLDRNPMCDNFGDQSSYISAIRERFPKLLRLDGHELPPPISFDVEAPTMLPPCKGSYFGTENLKSLVLRFLQQYYVIYDSGDRQGLLYAYHDGACCSLSIPYNPQNPVRKNLAEYVKDSRNVKKLKEPTQRFRLLKHTRLNVVAFLNELPKTQHDVNAFVVDISAQTSTLLCFSVNGVFKEVDGKSRDSLRAFTRTFIAVPASNSGLCIVNDELFVRNASPEEIQRAFAMSAPTPSSSPVPTLSPEQQEMLQAFSTQSGMNLEWSQKCLQDNNWDYTRSAQAFTLLKAKGEIPEVAFMK
B9: the binding entry is “binds”.
